Results: patent US20200087662
For some assays here: No signal at the amounts used counts as a negative. For some assays here: At least one result comes from cells or an extract, where the contact may be indirect. For some assays here: The exact form of at least one protein or probe is not confirmed.

Chains of the proteins cited; added tags and fusions are not shown. Residues count along the entry.
UniProt P11940, whole entry: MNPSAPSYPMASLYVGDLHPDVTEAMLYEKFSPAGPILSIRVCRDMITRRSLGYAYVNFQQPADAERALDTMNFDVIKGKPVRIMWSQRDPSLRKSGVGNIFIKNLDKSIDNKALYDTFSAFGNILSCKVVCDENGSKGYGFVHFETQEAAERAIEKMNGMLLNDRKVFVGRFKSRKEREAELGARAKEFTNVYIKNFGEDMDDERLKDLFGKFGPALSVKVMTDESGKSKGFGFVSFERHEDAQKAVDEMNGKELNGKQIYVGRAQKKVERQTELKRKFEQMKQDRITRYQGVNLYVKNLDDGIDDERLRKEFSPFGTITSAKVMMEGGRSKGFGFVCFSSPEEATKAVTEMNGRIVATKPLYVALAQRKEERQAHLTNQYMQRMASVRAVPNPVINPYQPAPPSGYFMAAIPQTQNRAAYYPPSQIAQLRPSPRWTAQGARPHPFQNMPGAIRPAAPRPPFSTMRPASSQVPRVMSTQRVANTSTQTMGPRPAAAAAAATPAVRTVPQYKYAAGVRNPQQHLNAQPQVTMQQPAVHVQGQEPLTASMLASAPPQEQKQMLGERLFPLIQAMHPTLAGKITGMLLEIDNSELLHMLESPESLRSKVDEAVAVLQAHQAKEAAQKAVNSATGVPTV
UniProt P11940, 1-383: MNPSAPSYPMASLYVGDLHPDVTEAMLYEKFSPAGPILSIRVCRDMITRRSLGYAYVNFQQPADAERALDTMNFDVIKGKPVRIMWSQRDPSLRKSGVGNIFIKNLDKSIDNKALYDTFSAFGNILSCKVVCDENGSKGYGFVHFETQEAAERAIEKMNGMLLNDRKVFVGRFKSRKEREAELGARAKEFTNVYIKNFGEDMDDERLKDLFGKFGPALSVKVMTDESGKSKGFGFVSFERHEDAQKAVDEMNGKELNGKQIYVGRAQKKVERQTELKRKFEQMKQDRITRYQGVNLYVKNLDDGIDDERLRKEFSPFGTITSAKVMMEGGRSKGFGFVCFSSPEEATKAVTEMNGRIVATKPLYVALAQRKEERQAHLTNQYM

Tests used:
[1] = biological target: PABP (PABPC1) (UniProt P11940); experiment: activity in cells; conditions: 2'-OMe at all riboses; PS at the 5'-most and 3'-most linkages; SUnSET in U2OS, 10 uM, 3 h; no significant effect; protein in cells; variant of Poly(A) SPOT-ON
[2] = biological target: PABP (PABPC1, endogenous) (Homo sapiens) (UniProt P11940); experiment: EMSA; conditions: 2'-OMe at all riboses, PS at the 5'-most and 3'-most linkages, protein in an extract, protein details: U2OS cytoplasmic/whole-cell lysate, label: Cy3 or 3' biotin
[3] = biological target: PABP (PABPC1, endogenous) (Homo sapiens) (UniProt P11940); experiment: pull-down; conditions: 2'-OMe at all riboses; PS at the 5'-most and 3'-most linkages; 3' biotin SPOT-ON, streptavidin beads, anti-PABP blot; diminished in PABP-depleted lysate; 2 mM MgCl2, 150 mM NaCl, 4 C; protein in an extract; protein details: U2OS cytoplasmic/whole-cell lysate; label: Cy3 or 3' biotin; variant of Unmodified Poly(A)12 RNA
[4] = biological target: PABPC1 (UniProt P11940); experiment: SELEX; conditions: most enriched 10-mer after five rounds of SEQRS; 50 mM HEPES pH 7.4, 2 mM EDTA, 150 mM NaCl, 22 C; purified recombinant protein; protein details: immobilized on magnetic glutathione (GST) resin

UAACAAAAUAAU [Scramble SPOT-ON]
functional effect [1]: not active | binding result ([2]; no clear binding to any species in whole-cell extract, variant of Poly(A) SPOT-ON): no binding

AAAAAAAAAAAA [Poly(A) SPOT-ON]
binding result ([2]; single shifted band from U2OS lysate, greatly reduced after PAIP depletion of PABP (53%), yeast tRNA, 1 mM EDTA, on ice, variant of Unmodified Poly(A)12 RNA): binds | binding result [3]: binds

AAAAAAAAAA [SEQRS top 10-mer poly(A)]
selection result [4]: selected
